At least one structure is not confirmed: it was looked up by name or label, or the drawing left a doubt.
Legend:
GBM TICs = assay: Tumor generation by GBM cells treated in vitro and transplanted intra-cranially in NSG mice; format: in vivo; settings: cells exposed 5 days in vitro, intra-cranial
From the text: After treatment, 500,000 live cells were transplanted intra-cranially in NSG mice. […] In contrast with the effects of MPT+TMX in TICs, treatment with temozolomide (TMZ, the frontline treatment for glioblastoma), had no apparent effects on TICs (FIG. 12D).
Unexpectedly, in light of the partial reduction in levels of Cool-1/βpix, and the similarly partial reduction in levels of proteins important in TIC biology, treatment with DCLTD-based therapies eliminates TICs. […] After treatment, 500,000 live cells were transplanted intra-cranially in NSG mice. […] Thus, treatment with temozolomide had little apparent effect on TIC elimination, in agreement with patient data indicating rapid recurrence of tumor even during the period of temozolomide treatment.
Exposure of GBM cells to the combination of MPT+TMX led to the apparently complete elimination of GBM cancer stem cells. GBM cells from four different cell lines were exposed to MPT+TMX combination for 72 hrs in vitro, after which 500,000 live cells were transplanted intra-cranially in NSG mice.

human GBM cells = assay: Established intracranial human GBM xenografts in NSG mice (cohorts together); settings: 9 weeks of treatment

Cn1nnc2c(C(N)=O)ncn2c1=O [TMZ, temozolomide]
tumor generation after transplant of 500,000 live treated cells (GBM TICs): generated tumors within three weeks | tumor growth during treatment (human GBM cells): transiently suppressed tumor growth
